Assay results published in PubChem BioAssay AID504834 (National Center for Advancing Translational Sciences (NCATS), 2011).
The campaign covered roughly 320,000 compounds. About 22,000 (6.9%) were called active. Inconclusive means that the source gave no clear call. Such entries were picked first, then a sample of the others. The call rests on the fitted dose curve; in most records, active means well fitted inhibition curve with a large enough effect; inconclusive means small, poorly fitted or top-dose-only effect, or another doubt; inactive means no such curve, though single readings can be large or run the other way. Potencies of inconclusive entries are doubtful fits and often do not repeat. Where a SMILES comes first, the peptide text is derived from it. The star is where a group is joined. Bz = O=C(c1ccccc1)*

assay: Primary qHTS for delayed death inhibitors of the malarial parasite plastid, 96 hour incubation; conditions: P. falciparum luciferase reporter growth; series mostly up to 28.7 µM; activity change, negative = inhibition: at the top concentration
How it was run: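 Readout is luminescence from an integrated firefly luciferase in P. falciparum. Red cells, 2% hematocrit and 0.05% parasitemia final, were cultured with compound through two parasite generations (96 hours) at 37 C, 5% CO2.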
On the % scale 0 is the no-effect control and ±100 the full control effect; potency means the concentration at half of the fitted maximal effect.

Row | SMILES | Potency | activity change, negative = inhibition
1 | Cc1ccc(-c2n[nH]c(=O)c3ccccc23)cc1S(=O)(=O)Nc1ccc(F)cc1 | inconclusive: 11.7 µM [inhibitor, single point] | 
2 | CCCOc1ccccc1/C=C1\SC(N)=NC1=O | active: 11.7 µM | 
3 | CCNC(=S)N1CCN(C(=O)C(Cc2ccccc2)NC(C)=O)CC1 (configuration not stated) | active: 10.4 µM | 
4 | O=c1o[nH]c(-c2ccccc2)c1C1=NCCCCC1 | inconclusive: 18.5 µM [inhibitor, single point] | 
5 | O=C(Nc1ccccc1)C1=C[C@H](c2ccc3c(c2)OCO3)C[C@H](OCCCCO)O1 | inconclusive: 10.4 µM [inhibitor, partial curve] | 
6 | Cc1ccc2nc(NNC(=O)c3ccc(S(=O)(=O)N4CCc5ccccc5C4)cc3)sc2c1 | active: 2.94 µM | 
7 | CCOC(=O)C1CCCN(c2c(N3CCc4ccccc4C3)c(=O)c2=O)C1 (configuration not stated) | inconclusive: 18.5 µM [inhibitor, single point] | 
8 | O=C(NC(Cc1ccccc1)C(=O)N1CCCC1C(=O)O)c1ccccc1 (stereo not drawn) (Bz-Phe-Pro-OH; configuration not given here) | inconclusive: 0.465 µM [inhibitor, partial curve, poor fit] | 
9 | O=C(CSc1nnc(-c2ccccc2F)n1C1CC1)Nc1ccc2[nH]c(=O)[nH]c2c1 | inconclusive: 1.17 µM [inhibitor, partial curve, poor fit] | 
10 | O=C(N/N=C/c1ccc(COc2ccc(Br)cc2)o1)c1ccc2c(c1)OCO2 |  | inactive: -2.33%
11 | CCOC(=O)c1sc(NC(=O)C(C)(C)C)cc1C |  | inactive: 19.9%
12 | CSCCC(NC(=O)COc1ccccc1)C(=O)N(C)CC(=O)Nc1ccc(C)cc1 (configuration not stated) | inconclusive: 11.7 µM [inhibitor, partial curve, poor fit] | 
13 | CCCCCOc1ccc(C(=O)NC(CCC)C(=O)O)cc1 (configuration not stated) |  | inactive: -16.8%
14 | C=CCN(c1ccccc1)S(=O)(=O)c1cccc(C(=O)N2CCN(c3ncccn3)CC2)c1 | inconclusive: 18.5 µM [inhibitor, single point] | 
15 | COc1ccccc1NC(=O)N1CCc2[nH]c3ccc(F)cc3c2C1 | inconclusive: 10.4 µM [inhibitor, partial curve, poor fit] | 
16 | COc1ccc(Nc2cc(C)c3c(O)cccc3n2)cc1 | active: 1.65 µM | 
17 | CCC1(c2ccc(OC)cc2)NC(=O)N(CC(=O)N2CCc3ccccc32)C1=O (configuration not stated) | inconclusive: 11.7 µM [inhibitor, single point] | 
18 | CC1Cc2ccccc2N1C(=O)CSc1nnnn1C(C)C (configuration not stated) | inconclusive: 10.4 µM [inhibitor, single point] | 
19 | COc1ccc2sc(SCCCS(=O)(=O)O)[n+](CCCS(=O)(=O)[O-])c2c1 | inconclusive: 18.5 µM [inhibitor, single point] | 
20 | COC(=O)c1ccc(OCC2c3cc(OC)c(OC)cc3CCN2C(C)=O)cc1 (configuration not stated) | inconclusive: 7.38 µM [inhibitor, single point] | 
21 | CCOc1ccc(CNC(=O)CCCC(=O)n2nc(C)c3ccccc32)cc1 | inconclusive: 10.4 µM [inhibitor, single point] | 

Row | SMILES | Potency | activity change, negative = inhibition
22 | Cc1c(C(=O)N2CCN(CCc3ccccn3)CC2)oc2ccc(F)cc12 |  | inactive: 29.5%
23 | O=C(O)CC/C(=N\NC(=O)c1ccncc1)c1ccccc1 | inconclusive: 18.5 µM [inhibitor, single point] | 
24 | CCc1sc(C(=O)N2CCN(CC(=O)Nc3cccc(F)c3)CC2)cc1C |  | inactive: -79.8%
25 | COC(=O)C1=C(c2ccc3ccccc3c2)C[C@@H]2CC[C@H]1N2C(=O)N1CCC(C)CC1 | inconclusive: 13.1 µM [inhibitor, single point] | 
26 | CCCCc1nnc(NC(=O)CSCc2cc(=O)n3cc(C)sc3n2)s1 | inconclusive: 13.1 µM [inhibitor, single point] | 
27 | CC(C)Oc1ccc(CCC(=O)NNC(=S)Nc2ccccc2)cc1 | inconclusive: 20.8 µM [inhibitor, partial curve, poor fit] | 
28 | CS(=O)(=O)c1ccc([C@@H](O)[C@@H](COC(=O)CN)NC(=O)C(Cl)Cl)cc1 | active: 1.9 µM | 
29 | CCN(Cc1ccccc1)CC(O)COc1ccccc1 (configuration not stated) | inconclusive: 10.4 µM [inhibitor, single point] | 
30 | CCOC(=O)CSc1nc2cc(C)ccc2cc1C#N | inconclusive: 0.37 µM [inhibitor, full curve, poor fit] | 
31 | CC[C@@]1(O)C(=O)OCc2c1cc1n(c2=O)Cc2cc3c([N+](=O)[O-])cccc3nc2-1 | inconclusive: 5.36 µM [inhibitor, partial curve] | 
32 | COc1ccc(CCn2c(=O)[nH]c3cc(C(=O)N4CCN(c5ccccc5)CC4)ccc3c2=O)cc1OC | inconclusive: 18.5 µM [inhibitor, single point] | 
33 | CCOC(=O)C1=C(O)/C(=C/c2ccc(-c3ccccc3C(=O)O)o2)SC1=Nc1ccc(C)cc1 | active: 0.928 µM | 
34 | COc1ccccc1NS(=O)(=O)c1cn(C)cn1 | inconclusive: 10.4 µM [inhibitor, partial curve, poor fit] | 
35 | COc1cc(Cl)ccc1OCc1cc(C(=O)N2CCCCCC2)no1 | inconclusive: 18.5 µM [inhibitor, single point] | 
36 | CC(=O)Nc1ccn(-c2ccccc2)n1 | inconclusive: 18.5 µM [inhibitor, single point] | 
37 | CCOC(=O)N1CCN(c2c(NCCc3ccccc3)c(=O)c2=O)CC1 | inconclusive: 11.7 µM [inhibitor, single point] | 
38 | CCOC(=O)C1=C(C)NC2=C(C(=O)CCC2)C1c1coc2ccccc2c1=O (configuration not stated) | active: 11.7 µM | 
39 | CSc1nc(Oc2ccc(Cl)cc2)c2sccc2n1 | active: 9.28 µM | 
40 | Cc1ccc(NC(=O)Cn2c(=O)n(CCC(=O)NC3CCN(Cc4ccccc4)CC3)c(=O)c3ccccc32)cc1 | inconclusive: 1.31 µM [inhibitor, partial curve, poor fit] | 
41 | Cc1ccc(-n2c(C)nn(Cc3ccc([N+](=O)[O-])cc3)c2=O)cc1 |  | inactive: -9.16% [at 5.75 µM]
42 | CCc1nnc(NC(=O)CSc2nc3ccc(OC)cc3[nH]2)s1 |  | inactive: 2.41%

3 entries from above in a different format:
Row	SMILES	Potency	activity change, negative = inhibition
25	COC(=O)C1=C(c2ccc3ccccc3c2)C[C@@H]2CC[C@H]1N2C(=O)N1CCC(C)CC1	inconclusive: 13.1 µM [inhibitor, single point]	
29	CCN(Cc1ccccc1)CC(O)COc1ccccc1 (configuration not stated)	inconclusive: 10.4 µM [inhibitor, single point]	
40	Cc1ccc(NC(=O)Cn2c(=O)n(CCC(=O)NC3CCN(Cc4ccccc4)CC3)c(=O)c3ccccc32)cc1	inconclusive: 1.31 µM [inhibitor, partial curve, poor fit]	
